PMC7534258, “Novel temporin L antimicrobial peptides: promoting self-assembling by lipidic tags to tackle superbugs” (Journal of Enzyme Inhibition and Medicinal Chemistry, 2020)
Where a SMILES comes first, the peptide text is derived from it. [ ]: non-standard residue; d: D form. The star is where a group is joined. Heptanoyl = CCCCCCC(=O)*; Pentanoyl = CCCCC(=O)*

How the values were obtained:
[1] = Thioflavin T peptide aggregation in LUVs; conditions: peptide 5–50 µM
CD spectroscopy in SUVs [2] = conditions: 8 µM peptide, SUVs DOPG/DOPE/CL, phosphate buffer 5 mM
[3] = Membrane fluidity, Laurdan generalised polarisation; conditions: Gram negative mimicking membranes, 25 °C
CD spectroscopy in SUVs [4] = conditions: 8 µM peptide, SUVs DOPG/CL, phosphate buffer 5 mM

SMILES: CCCCC(=O)N[C@@H](Cc1ccccc1)C(=O)N[C@H](C(=O)N1CCC[C@H]1C(=O)N[C@@H](Cc1c[nH]c2ccccc12)C(=O)N[C@@H](Cc1ccccc1)C(=O)N[C@@H](CO)C(=O)N[C@@H](CCCCN)C(=O)N[C@@H](Cc1ccccc1)C(=O)N[C@H](CC(C)C)C(=O)N[C@H](CCCCN)C(=O)N[C@@H](CCCNC(=N)N)C(=O)N[C@H](C(=O)N[C@@H](CC(C)C)C(N)=O)[C@@H](C)CC)C(C)C [Compound 2B, CH3(CH2)3CO-Phe-Val-Pro-Trp-Phe-Ser-Lys-Phe-DLeu-DLys-Arg-Ile-Leu-NH2] (Pentanoyl-FVPWFSKF[dL][dK]RIL-NH2)
- ThT aggregation in membrane (in words) [1]: lower aggregation at low peptide/lipid ratio
- θ222/θ208 Gram-negative mimicking membranes (CD spectroscopy in SUVs [2]): 2.6
- generalised polarisation (GP) LUVs + 5 µM Compound [3]: −0.05
- generalised polarisation (GP) LUVs + 30 µM Compound [3]: 0.03
- θ222/θ208 Gram-positive mimicking membranes (CD spectroscopy in SUVs [4]): 2.3

SMILES: CCCCCCC(=O)N[C@@H](Cc1ccccc1)C(=O)N[C@H](C(=O)N1CCC[C@H]1C(=O)N[C@@H](Cc1c[nH]c2ccccc12)C(=O)N[C@@H](Cc1ccccc1)C(=O)N[C@@H](CO)C(=O)N[C@@H](CCCCN)C(=O)N[C@@H](Cc1ccccc1)C(=O)N[C@H](CC(C)C)C(=O)N[C@H](CCCCN)C(=O)N[C@@H](CCCNC(=N)N)C(=O)N[C@H](C(=O)N[C@@H](CC(C)C)C(N)=O)[C@@H](C)CC)C(C)C [Compound 3B, CH3(CH2)5CO-Phe-Val-Pro-Trp-Phe-Ser-Lys-Phe-DLeu-DLys-Arg-Ile-Leu-NH2] (Heptanoyl-FVPWFSKF[dL][dK]RIL-NH2)
- ThT aggregation in membrane (in words) [1]: lower aggregation at low peptide/lipid ratio
- θ222/θ208 Gram-negative mimicking membranes (CD spectroscopy in SUVs [2]): 10.3
- generalised polarisation (GP) LUVs + 5 µM Compound [3]: −0.07
- generalised polarisation (GP) LUVs + 30 µM Compound [3]: 0.07
- θ222/θ208 Gram-positive mimicking membranes (CD spectroscopy in SUVs [4]): 3.1

SMILES: CC[C@H](C)[C@H](NC(=O)[C@H](CCCNC(=N)N)NC(=O)[C@@H](CCCCN)NC(=O)[C@@H](CC(C)C)NC(=O)[C@H](Cc1ccccc1)NC(=O)[C@H](CCCCN)NC(=O)[C@H](CO)NC(=O)[C@H](Cc1ccccc1)NC(=O)[C@H](Cc1c[nH]c2ccccc12)NC(=O)[C@@H]1CCCN1C(=O)[C@@H](NC(=O)[C@@H](N)Cc1ccccc1)C(C)C)C(=O)N[C@@H](CC(C)C)C(N)=O [Compound 1B, H-Phe-Val-Pro-Trp-Phe-Ser-Lys-Phe-DLeu-DLys-Arg-Ile-Leu-NH2] (H-FVPWFSKF[dL][dK]RIL-NH2)
- ThT aggregation in membrane (in words) [1]: drastic increase of fluorescence
- θ222/θ208 Gram-negative mimicking membranes (CD spectroscopy in SUVs [2]): 1.3
- generalised polarisation (GP) LUVs + 5 µM Compound [3]: 0.09
- generalised polarisation (GP) LUVs + 30 µM Compound [3]: 0.11
- θ222/θ208 Gram-positive mimicking membranes (CD spectroscopy in SUVs [4]): 2.0
